Assay results from US11723888B2, “Polymer conjugated thyrointegrin antagonists” (NanoPharmaceuticals, LLC, priority 2021, dated 2023).

By UniProt entry, the sequences of proteins in these tests, tags left out. Residues count along the entry.
UniProt P05106, 27-788 limits assumed: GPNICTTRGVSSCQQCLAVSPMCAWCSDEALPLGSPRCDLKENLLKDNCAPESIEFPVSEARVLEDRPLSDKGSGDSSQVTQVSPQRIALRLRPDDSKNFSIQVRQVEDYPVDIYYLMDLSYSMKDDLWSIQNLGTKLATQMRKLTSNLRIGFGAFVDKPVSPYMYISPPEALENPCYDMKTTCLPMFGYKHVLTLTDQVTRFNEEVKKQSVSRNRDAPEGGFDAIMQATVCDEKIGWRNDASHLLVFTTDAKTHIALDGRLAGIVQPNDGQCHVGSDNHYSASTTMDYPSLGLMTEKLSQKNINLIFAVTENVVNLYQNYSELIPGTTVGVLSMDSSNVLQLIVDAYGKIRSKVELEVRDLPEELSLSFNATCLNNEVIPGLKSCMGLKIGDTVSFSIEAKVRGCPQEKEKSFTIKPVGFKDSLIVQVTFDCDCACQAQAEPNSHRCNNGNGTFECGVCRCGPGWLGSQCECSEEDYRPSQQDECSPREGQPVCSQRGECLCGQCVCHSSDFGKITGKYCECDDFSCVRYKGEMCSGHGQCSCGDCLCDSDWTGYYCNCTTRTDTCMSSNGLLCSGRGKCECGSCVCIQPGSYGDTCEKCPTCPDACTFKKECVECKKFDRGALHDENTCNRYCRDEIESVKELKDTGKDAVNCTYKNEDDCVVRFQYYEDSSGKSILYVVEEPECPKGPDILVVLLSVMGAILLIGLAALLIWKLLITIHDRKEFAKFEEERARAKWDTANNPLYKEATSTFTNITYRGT
UniProt P06756, 31-889 limits assumed: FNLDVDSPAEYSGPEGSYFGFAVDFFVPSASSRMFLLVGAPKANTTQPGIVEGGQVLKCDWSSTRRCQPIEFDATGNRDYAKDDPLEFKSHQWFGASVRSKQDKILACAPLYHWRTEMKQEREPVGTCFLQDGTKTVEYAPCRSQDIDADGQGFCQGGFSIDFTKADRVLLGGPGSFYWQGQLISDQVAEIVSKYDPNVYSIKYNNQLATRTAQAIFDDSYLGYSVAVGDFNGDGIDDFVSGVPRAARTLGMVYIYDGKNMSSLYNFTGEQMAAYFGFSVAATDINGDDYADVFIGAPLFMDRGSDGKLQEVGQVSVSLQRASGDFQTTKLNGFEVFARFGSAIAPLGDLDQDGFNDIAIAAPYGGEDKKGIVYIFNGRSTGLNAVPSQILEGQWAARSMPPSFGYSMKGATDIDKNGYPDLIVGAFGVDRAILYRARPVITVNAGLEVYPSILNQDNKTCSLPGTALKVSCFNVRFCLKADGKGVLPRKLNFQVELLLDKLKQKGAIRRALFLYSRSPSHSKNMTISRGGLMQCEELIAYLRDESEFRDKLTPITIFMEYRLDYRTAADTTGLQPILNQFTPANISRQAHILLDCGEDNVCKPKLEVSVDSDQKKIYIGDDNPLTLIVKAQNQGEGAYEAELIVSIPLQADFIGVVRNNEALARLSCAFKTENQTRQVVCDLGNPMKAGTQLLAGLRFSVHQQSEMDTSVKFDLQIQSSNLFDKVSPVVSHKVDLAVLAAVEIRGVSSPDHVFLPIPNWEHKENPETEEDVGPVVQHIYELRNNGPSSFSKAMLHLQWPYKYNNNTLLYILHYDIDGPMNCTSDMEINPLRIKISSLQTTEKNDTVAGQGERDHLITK
UniProt P06756, 891-1048 limits assumed: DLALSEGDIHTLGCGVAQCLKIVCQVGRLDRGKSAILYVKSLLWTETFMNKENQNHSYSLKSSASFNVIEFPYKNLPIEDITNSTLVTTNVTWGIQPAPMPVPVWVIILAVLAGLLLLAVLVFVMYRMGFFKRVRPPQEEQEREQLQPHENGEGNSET

Tests used:
[1] = target: purified αvβ3 (Homo sapiens, UniProt P05106+P06756); test: Binding affinity to purified αvβ3 (fibrinogen-coated plate, IC50); conditions: read-out: binding affinity for αvβ3 (IC50 value); purified αvβ3, fibrinogen-coated plates, 2 hours room temperature
[2] = test system: skin cancer (A375) xenografts; test: Subcutaneous xenograft in nude mice, skin cancer; conditions: 6 mg/kg daily s.c. 21 days
Protocol: (§1) Immunodeficient female NCr nude homozygous mice aged 5-6 weeks weighing 20-25 g were purchased from Taconic Biosciences, Inc (Germantown, N.Y., USA). All animal studies were conducted at the animal facility of the Veteran Affairs Medical Center (Albany, N.Y., USA) in accordance with approved institutional guidelines for humane animal treatment and according to the current guidelines. Mice were maintained under specific pathogen-free conditions and housed under controlled conditions of temperature (20-24° C.) and humidity (60-70%) and 12 hours light/dark cycle with ad libitum access to water and food. Mice were allowed to acclimatize for 5 days before the study.
(§2) For the subcutaneous (s.c.), the study was conducted where MDMBA231, A2780 and A375 cancer cells were harvested, suspended in 100 μL of DMEM with 50% Matrigel®, and 2-5×10^6 cells were implanted s.c. dorsally in each flank to achieve two independent tumors per animal. Immediately prior to initiation of treatments, animals were randomized into treatment groups (5 animals/group) by tumor volume measurements with Vernier calipers. Treatments were begun after detection of palpable tumor mass (4-5 days post implantation). The treatments were control (PBS), P-bi-TET (n=36) (6 mg/kg), and m-P-mono-TET (n=36) (6 mg/kg). The agents were administered daily, s.c. for 21 days (ON Treatment) in one treatment arm, and in another treatment arm, were administrated daily for 21 days followed by 21 days discontinuation (ON Treatment+OFF Treatment). Animals were then humanely sacrificed, and tumors were harvested. Tumor weights and cell viability (bioluminescent signal intensity) were measured.
(§3) Tumor width and length were measured with calipers at 3 day intervals during ON and ON+OFF study and volumes were calculated using the standard formula W×L^2/2. Tumor weight was measured of harvested lesions following animal sacrifice.

[3] = test system: ovarian cancer (A2780) xenografts; test: Subcutaneous xenograft in nude mice, ovarian cancer; conditions: 6 mg/kg daily s.c. 21 days
Protocol: as §1, §2, §3

[4] = test system: MDMBA, A375 or A2780 cells; test: Chorioallantoic membrane model (CAM) cancer implant model; conditions: 10 μg/CAM, breast (MDMBA), ovarian (A2780), skin (A375) implants
Protocol: The relative potency of the TET derivatives in the CAM cancer cell implant model of tumor weight was carried out as previously described by Marcinkiewicz, C., et al., Obtustatin: a potent selective inhibitor of α1β1 integrin in vitro and angiogenesis in vivo. Cancer Research, 2003. 63(9): p. 2020-2023 and Mousa, D. S., et al., Nanoformulated bioactive compounds derived from different natural products combat pancreatic cancer cell proliferation. International journal of nanomedicine, 2020. 15: p. 2259. Ten-day-old chick embryos were purchased from Charles River Avian Vaccine Services (Norwich, Conn., USA) and incubated at 37° C. with 55% relative humidity. […]
Human Breast cancer (MDMBA 231), Skin (A375) and Ovarian (A2780) cells were grown in Dulbecco's Modified Eagle's Medium (DMEM) supplemented with 10% fetal bovine serum and 1% penicillin/streptomycin. […] The cells were washed with culture medium and counted.
Either MDMBA, A375 or A2780 cells at 1×10^6 cells in 30 μl of medium were mixed with same volume of Matrigel and implanted on the CAM. […] The antitumor activities of the treatments on tumor angiogenesis and growth were determined 8 days after tumor cell implantation. […]

[5] = test system: breast cancer (MDMBA231) xenografts; test: Subcutaneous xenograft in nude mice, breast cancer; conditions: 6 mg/kg daily s.c. 21 days
Protocol: as §1, §2, §3

[6] = measured 21 days after treatment (ON+OFF Treatment)

COCCOCCOCCOc1c(I)cc(Oc2c(I)cc(CC(=O)O)cc2I)cc1I was tested. Which IC50 [1] did it give?
The IC50 was 0.05 nM.

For COCCOCCOCCOCCOCCOCCOCCOCCOCCOCCOCCOCCOCCOCCOCCOCCOCCOCCOCCOCCOCCOCCOCCOCCOCCOCCOCCOCCOCCOCCOCCOCCOCCOCCOCCOCCOc1c(I)cc(Oc2c(I)cc(CC(=O)O)cc2I)cc1I, which “tumor weight reduced by” value [2, 6] is on record?
The value was 85.4%.

What about the “tumor volume compared with the control (PBS)” value ([2]; ON Treatment and ON+OFF Treatment, FIG. 15) of the same molecule?
The value was “reduction in tumor volume”.

And the “tumor weight compared with the control (PBS)” value ([2]; ON Treatment and ON+OFF Treatment, FIG. 18)?
Its value is “reduction in tumor weight”.

And the “tumor weight reduced by” value [3, 6]?
The value was 89.6%.

And the “tumor volume compared with the control (PBS)” value ([3]; ON Treatment and ON+OFF Treatment, FIG. 14)?
The value was “reduction in tumor volume”.

And the “tumor weight compared with the control (PBS)” value ([3]; ON Treatment and ON+OFF Treatment, FIG. 17)?
Its value is “reduction in tumor weight”.

And the “mean tumor weight compared with the control group (PBS)” value ([4]; FIG. 12)?
The value was “reduction of tumor weight”.

What about the “tumor hemoglobin (tumor vascularity) compared with the control group (PBS)” value ([4]; FIG. 13) of the same molecule?
The value was “reduction of tumor hemoglobin”.

What about the IC50 [1] of the same molecule?
The IC50 was 0.27 nM.

And the “tumor weight reduced by” value [5, 6]?
The value was 88.5%.

What about the “tumor volume compared with the control (PBS)” value ([5]; ON Treatment and ON+OFF Treatment, FIG. 16) of the same molecule?
The value was “reduction in tumor volume”.

And the “tumor weight compared with the control (PBS)” value ([5]; ON Treatment and ON+OFF Treatment, FIG. 19)?
Its value is “reduction in tumor weight”.

COCCOCCOCCOCCOCCOCCOCCOCCOCCOCCOCCOCCOCCOCCOCCOCCOc1c(I)cc(Oc2c(I)cc(CC(=O)O)cc2I)cc1I was tested. Which IC50 [1] did it give?
The IC50 was 0.03 nM.

The structures given here were assigned with low confidence; some may be wrong.
